In the supplement of paper PMC10849652:
The other results are listed elsewhere or left out.

Amino acid sequences for entries named in this document (tags omitted). A change or cut given only in a name is not applied to a line headed by its entry.
UniProt P50990: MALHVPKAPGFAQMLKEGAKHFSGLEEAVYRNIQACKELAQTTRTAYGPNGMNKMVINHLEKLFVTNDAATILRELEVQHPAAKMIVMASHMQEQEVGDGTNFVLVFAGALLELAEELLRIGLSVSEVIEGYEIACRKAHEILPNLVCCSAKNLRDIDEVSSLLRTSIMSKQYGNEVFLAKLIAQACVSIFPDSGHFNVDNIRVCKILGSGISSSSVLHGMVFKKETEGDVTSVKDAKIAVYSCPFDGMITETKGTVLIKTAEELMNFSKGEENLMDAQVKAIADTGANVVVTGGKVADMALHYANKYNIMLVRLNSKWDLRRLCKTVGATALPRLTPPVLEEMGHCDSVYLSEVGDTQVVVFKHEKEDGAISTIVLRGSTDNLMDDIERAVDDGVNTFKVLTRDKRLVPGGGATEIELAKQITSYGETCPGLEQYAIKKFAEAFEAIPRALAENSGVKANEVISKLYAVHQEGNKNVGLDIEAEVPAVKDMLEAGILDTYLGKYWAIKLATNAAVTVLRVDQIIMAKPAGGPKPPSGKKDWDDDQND
UniProt O60508: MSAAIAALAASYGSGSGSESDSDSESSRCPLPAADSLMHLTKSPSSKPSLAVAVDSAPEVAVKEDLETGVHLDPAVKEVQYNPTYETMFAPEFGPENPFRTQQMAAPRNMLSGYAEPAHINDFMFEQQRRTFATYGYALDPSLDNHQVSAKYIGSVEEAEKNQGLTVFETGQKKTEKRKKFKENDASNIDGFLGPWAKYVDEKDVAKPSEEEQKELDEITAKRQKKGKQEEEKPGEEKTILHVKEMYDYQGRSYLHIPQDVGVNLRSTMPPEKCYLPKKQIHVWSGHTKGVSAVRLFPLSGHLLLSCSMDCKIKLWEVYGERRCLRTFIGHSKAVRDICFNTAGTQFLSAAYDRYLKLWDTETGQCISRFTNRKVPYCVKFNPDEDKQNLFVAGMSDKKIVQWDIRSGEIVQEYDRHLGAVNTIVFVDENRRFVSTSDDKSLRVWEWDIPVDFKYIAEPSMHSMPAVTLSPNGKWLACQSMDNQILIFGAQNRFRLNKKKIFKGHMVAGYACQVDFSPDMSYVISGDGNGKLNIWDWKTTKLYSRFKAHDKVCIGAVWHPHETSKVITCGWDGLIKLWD
UniProt Q5T0F9: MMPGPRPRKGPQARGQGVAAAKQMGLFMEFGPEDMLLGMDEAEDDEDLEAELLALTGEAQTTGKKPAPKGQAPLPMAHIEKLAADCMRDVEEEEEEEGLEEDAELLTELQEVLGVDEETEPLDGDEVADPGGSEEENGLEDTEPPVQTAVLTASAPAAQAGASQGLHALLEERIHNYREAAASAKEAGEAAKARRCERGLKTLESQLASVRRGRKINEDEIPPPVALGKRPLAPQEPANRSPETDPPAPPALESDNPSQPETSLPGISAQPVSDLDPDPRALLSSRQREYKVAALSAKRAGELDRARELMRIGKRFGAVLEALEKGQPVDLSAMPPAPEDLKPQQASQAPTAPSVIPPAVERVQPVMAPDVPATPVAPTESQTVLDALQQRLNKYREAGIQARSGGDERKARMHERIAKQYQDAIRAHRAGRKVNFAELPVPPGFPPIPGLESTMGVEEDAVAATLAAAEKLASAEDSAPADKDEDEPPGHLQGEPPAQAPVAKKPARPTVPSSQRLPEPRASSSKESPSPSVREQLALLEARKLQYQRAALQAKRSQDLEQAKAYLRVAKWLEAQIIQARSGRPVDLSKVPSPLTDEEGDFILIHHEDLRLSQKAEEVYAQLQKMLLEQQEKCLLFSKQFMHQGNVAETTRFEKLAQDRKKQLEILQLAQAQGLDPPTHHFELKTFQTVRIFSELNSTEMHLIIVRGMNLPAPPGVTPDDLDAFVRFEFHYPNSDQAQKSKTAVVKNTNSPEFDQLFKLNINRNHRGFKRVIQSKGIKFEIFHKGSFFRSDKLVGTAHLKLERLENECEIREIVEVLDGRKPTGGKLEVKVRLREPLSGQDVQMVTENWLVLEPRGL
UniProt Q13042, whole entry, looked up: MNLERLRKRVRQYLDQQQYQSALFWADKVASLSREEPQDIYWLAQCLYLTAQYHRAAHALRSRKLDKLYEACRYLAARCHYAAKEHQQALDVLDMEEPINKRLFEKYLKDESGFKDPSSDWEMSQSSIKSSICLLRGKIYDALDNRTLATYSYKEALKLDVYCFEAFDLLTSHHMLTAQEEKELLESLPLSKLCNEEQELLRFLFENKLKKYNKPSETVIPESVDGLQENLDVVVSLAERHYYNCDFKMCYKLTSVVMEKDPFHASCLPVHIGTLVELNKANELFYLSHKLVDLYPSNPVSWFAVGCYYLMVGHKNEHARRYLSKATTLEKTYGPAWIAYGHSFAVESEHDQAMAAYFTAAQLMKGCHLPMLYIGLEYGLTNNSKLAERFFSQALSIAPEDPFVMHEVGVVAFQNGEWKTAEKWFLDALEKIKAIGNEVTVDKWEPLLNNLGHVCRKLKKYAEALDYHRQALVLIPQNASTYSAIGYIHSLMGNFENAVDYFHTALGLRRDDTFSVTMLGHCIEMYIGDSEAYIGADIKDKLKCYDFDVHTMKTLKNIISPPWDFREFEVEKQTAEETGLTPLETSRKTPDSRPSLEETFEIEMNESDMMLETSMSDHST
UniProt Q6P4E1: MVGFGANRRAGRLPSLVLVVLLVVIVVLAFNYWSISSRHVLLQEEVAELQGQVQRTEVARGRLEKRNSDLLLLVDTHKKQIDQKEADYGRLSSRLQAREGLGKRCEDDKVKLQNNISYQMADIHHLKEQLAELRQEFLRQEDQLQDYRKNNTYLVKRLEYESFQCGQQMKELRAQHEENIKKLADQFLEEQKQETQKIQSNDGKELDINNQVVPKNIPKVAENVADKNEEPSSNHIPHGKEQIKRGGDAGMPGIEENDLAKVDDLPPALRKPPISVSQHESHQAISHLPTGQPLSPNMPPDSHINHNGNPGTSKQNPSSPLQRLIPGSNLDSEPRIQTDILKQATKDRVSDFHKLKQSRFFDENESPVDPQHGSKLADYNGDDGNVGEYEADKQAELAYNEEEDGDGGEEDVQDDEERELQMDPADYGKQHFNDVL
UniProt Q9HA77: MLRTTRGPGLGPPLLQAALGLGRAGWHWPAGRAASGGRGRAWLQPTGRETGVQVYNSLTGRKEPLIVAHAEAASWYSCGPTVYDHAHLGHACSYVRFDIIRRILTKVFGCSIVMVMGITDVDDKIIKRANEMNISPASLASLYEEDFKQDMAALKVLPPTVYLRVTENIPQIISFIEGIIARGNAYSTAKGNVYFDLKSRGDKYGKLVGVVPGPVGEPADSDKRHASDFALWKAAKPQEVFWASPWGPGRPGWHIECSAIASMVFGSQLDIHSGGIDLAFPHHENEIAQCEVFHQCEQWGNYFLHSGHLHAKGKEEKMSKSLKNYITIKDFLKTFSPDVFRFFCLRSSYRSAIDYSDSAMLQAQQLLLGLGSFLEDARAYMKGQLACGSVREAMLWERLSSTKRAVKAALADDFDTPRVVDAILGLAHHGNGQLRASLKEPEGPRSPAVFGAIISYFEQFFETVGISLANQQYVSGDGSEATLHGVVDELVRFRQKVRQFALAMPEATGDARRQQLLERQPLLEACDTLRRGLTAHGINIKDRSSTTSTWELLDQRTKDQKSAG
UniProt P49368: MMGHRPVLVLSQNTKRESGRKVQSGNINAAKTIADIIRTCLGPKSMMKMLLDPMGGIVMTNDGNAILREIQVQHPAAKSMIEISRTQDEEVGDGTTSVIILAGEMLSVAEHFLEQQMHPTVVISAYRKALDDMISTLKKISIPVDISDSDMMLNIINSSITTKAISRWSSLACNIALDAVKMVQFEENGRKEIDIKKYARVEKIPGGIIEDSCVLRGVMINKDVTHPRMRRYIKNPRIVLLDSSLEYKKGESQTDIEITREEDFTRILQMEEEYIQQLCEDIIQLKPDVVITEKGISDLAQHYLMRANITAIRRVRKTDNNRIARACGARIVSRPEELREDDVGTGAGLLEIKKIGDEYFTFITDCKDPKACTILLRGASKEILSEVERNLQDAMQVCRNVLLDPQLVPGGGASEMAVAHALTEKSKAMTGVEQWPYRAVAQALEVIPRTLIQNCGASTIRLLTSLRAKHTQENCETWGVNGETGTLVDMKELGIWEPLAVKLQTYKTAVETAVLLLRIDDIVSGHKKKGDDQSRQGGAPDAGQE
UniProt Q96CT7: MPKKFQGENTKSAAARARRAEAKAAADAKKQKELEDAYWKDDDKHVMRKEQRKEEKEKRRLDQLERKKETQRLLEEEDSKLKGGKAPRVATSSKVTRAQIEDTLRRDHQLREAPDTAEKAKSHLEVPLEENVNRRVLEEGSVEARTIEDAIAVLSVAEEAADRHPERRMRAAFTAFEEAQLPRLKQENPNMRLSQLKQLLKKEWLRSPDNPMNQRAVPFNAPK
UniProt Q6PII3: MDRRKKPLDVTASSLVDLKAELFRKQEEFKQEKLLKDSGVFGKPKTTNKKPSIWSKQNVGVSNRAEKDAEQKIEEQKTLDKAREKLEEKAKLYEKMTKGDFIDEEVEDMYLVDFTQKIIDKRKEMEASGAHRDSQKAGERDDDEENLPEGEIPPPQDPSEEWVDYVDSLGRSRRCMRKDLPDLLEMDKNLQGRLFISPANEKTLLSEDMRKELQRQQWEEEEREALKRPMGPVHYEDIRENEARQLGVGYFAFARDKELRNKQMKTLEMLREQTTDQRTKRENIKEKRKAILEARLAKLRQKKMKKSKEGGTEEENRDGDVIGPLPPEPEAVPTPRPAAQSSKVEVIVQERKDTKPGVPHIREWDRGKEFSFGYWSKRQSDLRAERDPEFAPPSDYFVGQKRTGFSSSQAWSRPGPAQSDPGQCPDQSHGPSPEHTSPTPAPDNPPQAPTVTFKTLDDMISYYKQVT
UniProt Q8IWD4: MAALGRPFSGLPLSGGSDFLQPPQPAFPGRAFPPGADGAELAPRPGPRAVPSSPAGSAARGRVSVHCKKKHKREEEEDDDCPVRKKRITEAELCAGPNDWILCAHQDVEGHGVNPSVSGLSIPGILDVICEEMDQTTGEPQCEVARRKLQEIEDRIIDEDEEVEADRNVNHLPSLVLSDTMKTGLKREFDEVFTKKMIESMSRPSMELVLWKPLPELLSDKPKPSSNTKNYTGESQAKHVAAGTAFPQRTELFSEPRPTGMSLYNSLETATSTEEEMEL
UniProt P50991: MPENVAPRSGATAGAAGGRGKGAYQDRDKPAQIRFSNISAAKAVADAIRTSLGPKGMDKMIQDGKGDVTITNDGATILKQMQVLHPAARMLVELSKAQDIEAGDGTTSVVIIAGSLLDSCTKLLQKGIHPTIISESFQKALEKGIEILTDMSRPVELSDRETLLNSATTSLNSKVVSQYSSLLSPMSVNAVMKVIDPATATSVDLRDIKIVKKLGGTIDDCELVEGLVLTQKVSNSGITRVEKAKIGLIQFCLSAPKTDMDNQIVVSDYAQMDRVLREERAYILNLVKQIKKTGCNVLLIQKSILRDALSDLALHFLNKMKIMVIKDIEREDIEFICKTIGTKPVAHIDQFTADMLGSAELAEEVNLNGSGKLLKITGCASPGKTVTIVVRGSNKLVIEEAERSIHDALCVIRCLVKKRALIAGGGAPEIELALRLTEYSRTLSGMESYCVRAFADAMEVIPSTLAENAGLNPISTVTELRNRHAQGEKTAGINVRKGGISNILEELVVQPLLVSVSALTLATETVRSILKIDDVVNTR
UniProt P20810: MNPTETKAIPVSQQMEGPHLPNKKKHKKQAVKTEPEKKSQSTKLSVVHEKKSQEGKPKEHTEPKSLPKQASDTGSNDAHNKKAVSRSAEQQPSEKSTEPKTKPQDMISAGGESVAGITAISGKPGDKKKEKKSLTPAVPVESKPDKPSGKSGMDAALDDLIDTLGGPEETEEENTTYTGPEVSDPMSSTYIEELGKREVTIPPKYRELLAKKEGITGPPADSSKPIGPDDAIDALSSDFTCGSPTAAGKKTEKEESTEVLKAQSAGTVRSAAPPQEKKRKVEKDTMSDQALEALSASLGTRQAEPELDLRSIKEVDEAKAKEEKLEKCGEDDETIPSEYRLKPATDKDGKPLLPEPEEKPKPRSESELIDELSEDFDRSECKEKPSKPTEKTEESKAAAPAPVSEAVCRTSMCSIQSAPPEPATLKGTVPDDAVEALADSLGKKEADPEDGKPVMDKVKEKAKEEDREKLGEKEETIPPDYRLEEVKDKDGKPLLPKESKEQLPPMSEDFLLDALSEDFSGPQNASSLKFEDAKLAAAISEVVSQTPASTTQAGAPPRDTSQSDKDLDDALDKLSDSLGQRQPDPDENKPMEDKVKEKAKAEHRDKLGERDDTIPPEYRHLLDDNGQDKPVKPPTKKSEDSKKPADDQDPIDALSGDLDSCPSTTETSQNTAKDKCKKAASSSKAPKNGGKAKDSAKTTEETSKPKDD
UniProt P60953, whole entry, looked up: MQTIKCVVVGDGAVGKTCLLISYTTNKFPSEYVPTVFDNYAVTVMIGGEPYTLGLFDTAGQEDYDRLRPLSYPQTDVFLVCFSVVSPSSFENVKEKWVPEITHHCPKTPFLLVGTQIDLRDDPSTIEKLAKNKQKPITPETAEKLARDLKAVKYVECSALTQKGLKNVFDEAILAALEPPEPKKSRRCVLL

Key:
Assay in all cases: log2 fold change, soluble protein after heating vs DMSO (PISA); higher = thermal stabilisation; K562 cells, 10 uM, 30 min; active = over 0.2 and 3.5 SD of the protein, either way, in both replicates (recomputed)
[1] = compound: COC1=CC=C(C=C1)CN2C=CC3=C2C=C(C=C3)C(=O)NO
Outline: (§1)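 K562 cells at 2×10^6 cells/mL were given 10 μM compound for 30 min. Aliquots then went through 3 min of heating across 48°C-58°C, were pooled, and were extracted in PBS with 0.5% NP-40 at 4°C, and the supernatant after 21,000xg for 90 min was quantified by TMTpro 16plex LC-MS/MS with channel sums equalised. Thermal stability relative to control samples, from duplicates, is given as log2 fold change.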

filanesib = compound: CON(C)C(=O)N1N=C(c2cc(F)ccc2F)S[C@@]1(CCCN)c1ccccc1 [filanesib]
Outline: as §1

zotarolimus = compound: CO[C@H]1C[C@@H]2CC[C@@H](C)[C@@](O)(O2)C(=O)C(=O)N2CCCC[C@H]2C(=O)O[C@H]([C@H](C)C[C@@H]2CC[C@H](n3cnnn3)[C@H](OC)C2)CC(=O)[C@H](C)/C=C(\C)[C@@H](O)[C@@H](OC)C(=O)[C@H](C)C[C@H](C)/C=C/C=C/C=C/1C [zotarolimus]
Outline: as §1

idasanutlin = compound: COc1cc(C(=O)O)ccc1NC(=O)[C@@H]1N[C@@H](CC(C)(C)C)[C@](C#N)(c2ccc(Cl)cc2F)[C@H]1c1cccc(Cl)c1F [idasanutlin]
Outline: as §1

alisertib = compound: COc1cc(Nc2ncc3c(n2)-c2ccc(Cl)cc2C(c2c(F)cccc2OC)=NC3)ccc1C(=O)O [alisertib]
Outline: as §1

[2] = compound: COc1cc2nc(-c3cc(F)ccc3O)nc(N[C@@H]3CNC[C@H]3C(C)(C)O)c2cc1OC
Outline: as §1

gefitinib = compound: COc1cc2ncnc(Nc3ccc(F)c(Cl)c3)c2cc1OCCCN1CCOCC1 [gefitinib]
Outline: as §1

[3] = compound: COc1cccc2cc(-c3nc([C@H]4CC[C@H](C(=O)O)CC4)n4ncnc(N)c34)[nH]c12
Outline: as §1

lapatinib = compound: CS(=O)(=O)CCNCc1ccc(-c2ccc3ncnc(Nc4ccc(OCc5cccc(F)c5)c(Cl)c4)c3c2)o1 [lapatinib]
Outline: as §1

pictilisib = compound: CS(=O)(=O)N1CCN(Cc2cc3nc(-c4cccc5[nH]ncc45)nc(N4CCOCC4)c3s2)CC1 [pictilisib]
Outline: as §1

[4] = compound: CS(=O)(=O)c1ccc(-c2cnc(N)c(C(=O)Nc3ccccc3)n2)cc1
Outline: as §1

crizotinib = compound: C[C@@H](Oc1cc(-c2cnn(C3CCNCC3)c2)cnc1N)c1c(Cl)ccc(F)c1Cl [crizotinib]
Outline: as §1

[5] = compound: C[C@@H]1COCCN1C2=NC(=NC(=C2)C3(CC3)S(=O)(=O)C)C4=C5C=CNC5=CC=C4
Outline: as §1

[6] = compound: C[C@H](C1=CC=C(C=C1)C(=O)NC2=C3C=CNC3=NC=C2)N
Outline: as §1

duvelisib = compound: C[C@H](Nc1ncnc2nc[nH]c12)c1cc2cccc(Cl)c2c(=O)n1-c1ccccc1 [duvelisib]
Outline: as §1

gandotinib = compound: Cc1cc(Nc2cc(CN3CCOCC3)c3nc(C)c(Cc4ccc(Cl)cc4F)n3n2)n[nH]1 [gandotinib]
Outline: as §1

tozasertib = compound: Cc1cc(Nc2cc(N3CCN(C)CC3)nc(Sc3ccc(NC(=O)C4CC4)cc3)n2)n[nH]1 [tozasertib]
Outline: as §1

[7] = compound: Cc1cc(SCc2sc(-c3ccc(C(F)(F)F)cc3)nc2C)ccc1OCC(=O)O
Outline: as §1

doramapimod = compound: Cc1ccc(-n2nc(C(C)(C)C)cc2NC(=O)Nc2ccc(OCCN3CCOCC3)c3ccccc23)cc1 [doramapimod]
Outline: as §1

ispinesib = compound: Cc1ccc(C(=O)N(CCCN)[C@@H](c2nc3cc(Cl)ccc3c(=O)n2Cc2ccccc2)C(C)C)cc1 [ispinesib]
Outline: as §1

Measured: log2 fold change

CCT8 (UniProt P50990)
inactive: [1] 0.048 | filanesib -0.042 | zotarolimus 0.004 | idasanutlin -0.01 | alisertib -0.058 | [2] 0.009 | gefitinib -0.021 | [3] 0.028 | lapatinib -0.004 | pictilisib -0.01 | [4] -0.004 | crizotinib -0.012 | [5] 0.004 | [6] -0.016 | duvelisib 0.011 | gandotinib -0.01 | tozasertib -0.013 | [7] 0.008 | doramapimod 0.016 | ispinesib -0.001

CDC40 (UniProt O60508)
inactive: [1] -0.253 | filanesib 0.471 | zotarolimus -0.071 | idasanutlin 0.295 | alisertib -0.045 | [2] -0.224 | gefitinib -0.108 | [3] -0.207 | lapatinib 0.12 | pictilisib 0.03 | [4] -0.059 | crizotinib 0.139 | [5] -0.415 | [6] 0.345 | duvelisib -0.129 | gandotinib 0.503 | tozasertib 0.11 | [7] -0.027 | doramapimod 0.155

CD59 isoform 2 (UniProt P13987)
inactive: [1] -0.014 | filanesib 0.102 | zotarolimus 0.008 | idasanutlin 0.067 | alisertib -0.123 | [2] 0.069 | gefitinib 0.101 | [3] -0.077 | lapatinib 0.003 | pictilisib 0.045 | [4] 0.049 | crizotinib 0.273 | [5] -0.079 | [6] -0.131 | duvelisib -0.057 | gandotinib 0.001 | tozasertib 0.025 | [7] -0.045 | doramapimod -0.038 | ispinesib 0.186

CCDC25 (UniProt Q86WR0)
inactive: [1] 0.105 | filanesib -0.028 | zotarolimus 0.002 | idasanutlin -0.043 | alisertib -0.043 | [2] 0.04 | gefitinib -0.003 | [3] 0.068 | lapatinib -0.033 | pictilisib -0.004 | [4] 0.073 | crizotinib -0.141 | [5] 0.105 | [6] -0.01 | duvelisib 0.079 | gandotinib -0.018 | tozasertib -0.07 | [7] 0.133 | doramapimod -0.055 | ispinesib -0.031

CC2D1B isoform 2 (UniProt Q5T0F9)
inactive: [1] 0.016 | filanesib 0.027 | zotarolimus 0.001 | idasanutlin -0.036 | alisertib 0.031 | [2] 0.074 | gefitinib -0.01 | [3] 0.024 | lapatinib -0.007 | pictilisib 0.059 | [4] 0.042 | crizotinib 0.008 | [5] -0.039 | [6] 0.012 | duvelisib 0.004 | gandotinib -0.049 | tozasertib 0.03 | [7] -0.026 | doramapimod -0.001 | ispinesib 0.004

CDC16 (UniProt Q13042)
inactive: [1] -0.074 | filanesib 0.05 | zotarolimus -0.001 | idasanutlin -0.015 | alisertib -0.069 | [2] -0.034 | gefitinib -0.012 | [3] -0.019 | lapatinib 0.041 | pictilisib 0.015 | [4] -0.017 | crizotinib 0.016 | [5] -0.021 | [6] 0.034 | duvelisib 0.023 | gandotinib 0.016 | tozasertib 0.064 | [7] 0.026 | doramapimod 0.033 | ispinesib 0.007

CASC4 (UniProt Q6P4E1)
inactive: [1] -0.045 | filanesib -0.012 | zotarolimus 0.047 | idasanutlin -0.103 | alisertib 0.029 | [2] 0.097 | gefitinib 0.066 | [3] 0.1 | lapatinib -0.036 | pictilisib 0.066 | [4] 0.026 | crizotinib 0.062 | [5] 0.024 | [6] 0.031 | duvelisib 0.049 | gandotinib -0.03 | tozasertib 0.017 | [7] -0.04 | doramapimod 0.016 | ispinesib 0.001

CARS2 (UniProt Q9HA77)
inactive: [1] 0.036 | filanesib -0.051 | zotarolimus -0.018 | idasanutlin -0.072 | alisertib 0.116 | [2] 0.038 | gefitinib -0.01 | [3] 0.102 | lapatinib 0.034 | pictilisib -0.036 | [4] 0.012 | crizotinib 0.014 | [5] 0.034 | [6] -0.036 | duvelisib 0.007 | gandotinib 0.054 | tozasertib 0.053 | [7] -0.004 | doramapimod -0.038 | ispinesib 0.032

CCT3 (UniProt P49368)
inactive: [1] -0.008 | filanesib 0.026 | zotarolimus 0.009 | idasanutlin -0.014 | alisertib -0.078 | [2] 0.003 | gefitinib -0.02 | [3] 0.008 | lapatinib -0.043 | pictilisib -0.007 | [4] 0.015 | crizotinib 0.023 | [5] 0.02 | [6] -0.001 | duvelisib 0.001 | gandotinib 0.019 | tozasertib -0.004 | [7] -0.015 | doramapimod -0.041 | ispinesib 0.026

CCDC124 (UniProt Q96CT7)
inactive: [1] -0.078 | filanesib 0.114 | zotarolimus -0.029 | idasanutlin 0.05 | alisertib -0.046 | [2] 0.002 | gefitinib 0.006 | [3] 0.005 | lapatinib -0.023 | pictilisib -0.007 | [4] -0.043 | crizotinib 0.006 | [5] -0.004 | [6] 0.052 | duvelisib -0.007 | gandotinib 0.031 | tozasertib -0.002 | [7] -0.013 | doramapimod 0.028 | ispinesib -0.089

CCDC174 (UniProt Q6PII3)
inactive: [1] -0.07 | filanesib 0.04 | zotarolimus -0.049 | idasanutlin 0.057 | alisertib -0.045 | [2] 0.045 | gefitinib 0.045 | [3] 0.007 | lapatinib -0.073 | pictilisib 0.001 | [4] 0.003 | crizotinib 0.058 | [5] 0.014 | [6] -0.071 | duvelisib 0.025 | gandotinib 0.022 | tozasertib 0.012 | [7] -0.037 | doramapimod 0 | ispinesib 0.047

CCDC117 (UniProt Q8IWD4)
inactive: [1] -0.062 | filanesib 0.061 | zotarolimus -0.059 | idasanutlin 0.035 | alisertib -0.037 | [2] -0.012 | gefitinib 0.063 | [3] -0.07 | lapatinib -0.068 | pictilisib -0.019 | [4] 0.104 | crizotinib -0.071 | [5] 0.01 | [6] -0.03 | duvelisib -0.05 | gandotinib 0.032 | tozasertib 0.025 | [7] -0.001 | doramapimod -0.027 | ispinesib -0.03

CCT4 (UniProt P50991)
inactive: [1] 0.037 | filanesib -0.061 | zotarolimus 0 | idasanutlin -0.035 | alisertib -0.073 | [2] -0.059 | gefitinib -0.01 | [3] -0.008 | lapatinib 0.117 | pictilisib -0.049 | [4] -0.038 | crizotinib 0.014 | [5] 0.031 | [6] -0.007 | duvelisib 0.002 | gandotinib -0.027 | tozasertib 0.004 | [7] 0.01 | doramapimod -0.015 | ispinesib 0.041

Looked up one by one from the list above, 2 records:
CCDC117 (UniProt Q8IWD4)
inactive: [1] -0.062 | filanesib 0.061 | zotarolimus -0.059 | idasanutlin 0.035 | alisertib -0.037 | [2] -0.012 | gefitinib 0.063 | [3] -0.07 | lapatinib -0.068 | pictilisib -0.019 | [4] 0.104 | crizotinib -0.071 | [5] 0.01 | [6] -0.03 | duvelisib -0.05 | gandotinib 0.032 | tozasertib 0.025 | [7] -0.001 | doramapimod -0.027 | ispinesib -0.03

CCT3 (UniProt P49368)
inactive: [1] -0.008 | filanesib 0.026 | zotarolimus 0.009 | idasanutlin -0.014 | alisertib -0.078 | [2] 0.003 | gefitinib -0.02 | [3] 0.008 | lapatinib -0.043 | pictilisib -0.007 | [4] 0.015 | crizotinib 0.023 | [5] 0.02 | [6] -0.001 | duvelisib 0.001 | gandotinib 0.019 | tozasertib -0.004 | [7] -0.015 | doramapimod -0.041 | ispinesib 0.026

Next part.

CAST isoform 6 (UniProt P20810)
inactive: [1] -0.038 | filanesib 0.02 | zotarolimus -0.038 | idasanutlin 0.014 | alisertib -0.042 | [2] 0.024 | gefitinib -0.012 | [3] 0.048 | lapatinib -0.044 | pictilisib 0.03 | [4] 0.019 | crizotinib -0.004 | [5] 0.039 | [6] 0.024 | duvelisib 0.013 | gandotinib 0.043 | tozasertib -0.036 | [7] -0.081 | doramapimod -0.008 | ispinesib -0.025

CC2D1A (UniProt Q6P1N0)
inactive: [1] 0.012 | filanesib 0.053 | zotarolimus -0.011 | idasanutlin -0.026 | alisertib 1.24 | [2] 0.035 | gefitinib -0.049 | [3] -0.015 | lapatinib -0.006 | pictilisib -0.067 | [4] 0.04 | crizotinib 0.043 | [5] -0.005 | [6] 0.024 | duvelisib 0.041 | gandotinib -0.034 | tozasertib -0.002 | [7] 0.114 | doramapimod 0.039 | ispinesib -0.002

CDC42 isoform 1 (UniProt P60953)
inactive: [1] -0.061 | filanesib 0.021 | zotarolimus -0.037 | idasanutlin 0.022 | alisertib -0.001 | [2] -0.034 | gefitinib 0.01 | [3] 0.071 | lapatinib -0.063 | pictilisib 0.042 | [4] 0.028 | crizotinib 0.151 | [5] -0.022 | [6] -0.096 | duvelisib -0.021 | gandotinib -0.029 | tozasertib -0.014 | [7] -0.073 | doramapimod -0.03 | ispinesib 0.039
